These are yes or no findings as the source states them, for the method shown. Some results given as binding are weak or reduced against the parent protein; the word gives no strength.

Chains of the proteins cited; added tags and fusions are not shown. Residues count along the entry.
UniProt P40259, residues 29-229: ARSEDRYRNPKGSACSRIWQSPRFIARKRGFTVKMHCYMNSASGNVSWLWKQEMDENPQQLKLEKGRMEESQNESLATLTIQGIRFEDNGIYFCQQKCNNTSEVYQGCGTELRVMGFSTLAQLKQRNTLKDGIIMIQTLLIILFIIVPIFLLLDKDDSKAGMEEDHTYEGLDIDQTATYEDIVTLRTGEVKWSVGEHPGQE

Experiment [1] has as its target T1, human CD79B antigen (a full-length protein containing signal peptide, UniProt ID: P40259) on cells (human) (UniProt P40259). Nature of the experiment: flow cytometry, legend of FIG. 1. In general terms: In flow cytometry, cells or beads pass a laser one at a time.
In experiment [2] the target is T1, human CD79B antigen. Nature of the experiment: flow cytometry on HEK-293T cells overexpressing CD79B-GFP, 0.1 mg/mL, APC-His tag antibody.

B1: anti-CD79B single-domain antibody JYB8 (VHH, not shown: small tags and cut ends)
VHH: DVQLQESGGGLMQPGGSLSLTCTASISSLSIWVRAWHRQAPGKQRELVAAINSDGQTMYADSVKGRFTISRDSAKTTVSLQMDSLKPEDTAVYYCNVVTPKGQQYWGQGTQVTVSS
Turning to B1, the binding result in the experiment with human CD79B antigen [1] and with human CD79B antigen [2] was “binds” each time.
